Reference: paper doi:10.1101/2023.01.19.524830

Amino acid sequences for entries named in this document (tags omitted). A change or cut given only in a name is not applied to a line headed by its entry.
UniProt Q5VMP0: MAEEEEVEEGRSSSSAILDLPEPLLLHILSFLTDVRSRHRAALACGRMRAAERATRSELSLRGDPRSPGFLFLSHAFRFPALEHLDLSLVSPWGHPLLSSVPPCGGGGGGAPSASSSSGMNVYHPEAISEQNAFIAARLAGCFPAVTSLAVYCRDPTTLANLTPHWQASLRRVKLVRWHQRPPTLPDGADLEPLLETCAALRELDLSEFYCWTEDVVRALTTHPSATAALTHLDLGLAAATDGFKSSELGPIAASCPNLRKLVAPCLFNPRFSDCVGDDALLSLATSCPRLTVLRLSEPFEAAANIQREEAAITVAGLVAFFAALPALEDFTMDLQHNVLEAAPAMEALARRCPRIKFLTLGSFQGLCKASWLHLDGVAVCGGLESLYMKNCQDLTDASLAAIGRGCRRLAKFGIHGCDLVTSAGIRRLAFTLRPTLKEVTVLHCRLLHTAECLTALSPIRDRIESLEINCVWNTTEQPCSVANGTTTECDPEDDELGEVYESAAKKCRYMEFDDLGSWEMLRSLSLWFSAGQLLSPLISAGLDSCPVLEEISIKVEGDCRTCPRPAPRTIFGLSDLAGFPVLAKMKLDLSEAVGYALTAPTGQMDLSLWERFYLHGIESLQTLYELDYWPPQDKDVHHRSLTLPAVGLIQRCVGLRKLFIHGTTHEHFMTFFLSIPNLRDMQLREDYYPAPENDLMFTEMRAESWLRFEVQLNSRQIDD
UniProt Q39255: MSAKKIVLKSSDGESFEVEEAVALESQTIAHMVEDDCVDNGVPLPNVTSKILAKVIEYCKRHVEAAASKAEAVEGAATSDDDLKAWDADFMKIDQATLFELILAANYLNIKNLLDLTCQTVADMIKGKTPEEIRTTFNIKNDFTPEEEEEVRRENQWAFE

Target: 6xHis-2xMsb-D3^D720K (full-length rice D3 with D720K) (O. sativa (rice)) (UniProt Q5VMP0)
Assay: co-purification

binding: binds
Substance: ASK1 (A. thaliana), untagged (from UniProt Q39255 1-160)

Results are given in words; binding and its absence hold for the method and conditions named. In cells and extracts the contact can be indirect. Binding can be weak; no strength is given.
